From publication doi:10.1101/2023.06.28.546937
Where a chain is given by its changes, count along the chain named. Names may count otherwise. Where two headings read alike, the source gives them in different places. Results are given in words; binding and its absence hold for the method and conditions named. Binding calls can cover weak binding; strength is not graded here. Sequences can lack the tags named with a protein.

B1: MBP-Tin homeodomain, wild-type (domain or fragment, UniProt P22711 301-360)
chain: KRKPRVLFSQAQVLELECRFRLKKYLTGAEREIIAQKLNLSATQVKIWFQNRRYKSKRGD
B2: MBP-Tin homeodomain R321N (domain or fragment, UniProt P22711 301-360)
chain: B1 chain with R21N

Tests used:
Test in all cases: pull-down
[1] = target: GST-Doc1 (Dorsocross1) (Drosophila)
[2] = target: GST-Doc1 (Dorsocross1) (Drosophila); remark: listed apart in the source
[3] = target: GST-Doc1 (Dorsocross1) (Drosophila); remark: listed apart in the source

binding [1]	binding [2]	binding [3]	Binder
binds	binds		B1
binds		binds	B2
